Plain letter strings leave the end groups untold. Some peptides are written in HELM: one residue between dots, names in brackets for other building blocks, links after the first $. The star is where a group is joined. NHNH2 = NN*
Test: peptide made by a vendor
Conditions: whole synthesis

Substance	final HPLC purity
Ac-IKAQWLAAEFIQAVAAVLAMLRNNQFEFAGVAH-NHNH2 (SMILES CC[C@H](C)[C@H](NC(C)=O)C(=O)N[C@@H](CCCCN)C(=O)N[C@@H](C)C(=O)N[C@@H](CCC(N)=O)C(=O)N[C@@H](Cc1c[nH]c2ccccc12)C(=O)N[C@@H](CC(C)C)C(=O)N[C@@H](C)C(=O)N[C@@H](C)C(=O)N[C@@H](CCC(=O)O)C(=O)N[C@@H](Cc1ccccc1)C(=O)N[C@H](C(=O)N[C@@H](CCC(N)=O)C(=O)N[C@@H](C)C(=O)N[C@H](C(=O)N[C@@H](C)C(=O)N[C@@H](C)C(=O)N[C@H](C(=O)N[C@@H](CC(C)C)C(=O)N[C@@H](C)C(=O)N[C@@H](CCSC)C(=O)N[C@@H](CC(C)C)C(=O)N[C@@H](CCCNC(=N)N)C(=O)N[C@@H](CC(N)=O)C(=O)N[C@@H](CC(N)=O)C(=O)N[C@@H](CCC(N)=O)C(=O)N[C@@H](Cc1ccccc1)C(=O)N[C@@H](CCC(=O)O)C(=O)N[C@@H](Cc1ccccc1)C(=O)N[C@@H](C)C(=O)NCC(=O)N[C@H](C(=O)N[C@@H](C)C(=O)N[C@@H](Cc1c[nH]cn1)C(=O)NN)C(C)C)C(C)C)C(C)C)[C@@H](C)CC)	95.04%
HGDGSFSDEMNTILDNLAARDFINWLIQTKITD	95.19%
PEPTIDE1{[ac].[dI].[dK].[dA].[dQ].[dW].[dL].[dA].[dA].[dE].[dF].[dI].[dQ].[dA].[dV].[dA].[dA].[dV].[dL].[dA].[dM].[dL].[dR].[dN].[dN].[dQ].[dF].[dE].[dF].[dA].G.[dV].[dA].[dH].[am]}$$$$V2.0	96.60%
PEPTIDE1{[ac].[dI].[dK].[dA].[dQ].[dW].[dL].[dA].[dA].[dE].[dF].[dI].[dQ].[dA].[dV].[dA].[dA].[dV].[dL].[dA].[dM].[dL].[dR].[dN].[dN].[dQ].[dF].[dE].[dF].[dA].G.[dV].[dE].[dH].[am]}$$$$V2.0	95.10%

Source: publication PMC10424673 (Journal of Medicinal Chemistry, 2023)
